In patent US20190300875A1:
No constants are given. Whether binding was seen depends on the method and setting. For some assays here: Binding seen in cells or lysates may run through a third protein. Some binding calls cover weakened binding; strength is not graded here.

The chains behind the UniProt entries cited, without tags or fusion partners. Where a name states a change or a piece, a line headed by the entry shows the natural chain unless it says otherwise.
UniProt O77059: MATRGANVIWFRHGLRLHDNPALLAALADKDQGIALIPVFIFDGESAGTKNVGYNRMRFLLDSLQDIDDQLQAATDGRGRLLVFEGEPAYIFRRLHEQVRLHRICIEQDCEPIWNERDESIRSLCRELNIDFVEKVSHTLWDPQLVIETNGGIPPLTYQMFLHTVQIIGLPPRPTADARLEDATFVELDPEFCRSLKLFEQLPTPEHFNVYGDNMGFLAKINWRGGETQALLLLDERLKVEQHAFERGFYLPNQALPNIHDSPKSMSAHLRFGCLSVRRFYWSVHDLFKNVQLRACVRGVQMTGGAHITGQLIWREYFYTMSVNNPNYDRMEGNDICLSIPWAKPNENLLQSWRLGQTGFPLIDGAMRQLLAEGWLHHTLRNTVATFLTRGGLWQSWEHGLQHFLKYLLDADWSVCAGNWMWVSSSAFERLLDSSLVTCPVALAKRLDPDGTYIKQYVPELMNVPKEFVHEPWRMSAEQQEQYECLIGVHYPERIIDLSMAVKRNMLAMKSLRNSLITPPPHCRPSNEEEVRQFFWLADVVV
UniProt Q96524: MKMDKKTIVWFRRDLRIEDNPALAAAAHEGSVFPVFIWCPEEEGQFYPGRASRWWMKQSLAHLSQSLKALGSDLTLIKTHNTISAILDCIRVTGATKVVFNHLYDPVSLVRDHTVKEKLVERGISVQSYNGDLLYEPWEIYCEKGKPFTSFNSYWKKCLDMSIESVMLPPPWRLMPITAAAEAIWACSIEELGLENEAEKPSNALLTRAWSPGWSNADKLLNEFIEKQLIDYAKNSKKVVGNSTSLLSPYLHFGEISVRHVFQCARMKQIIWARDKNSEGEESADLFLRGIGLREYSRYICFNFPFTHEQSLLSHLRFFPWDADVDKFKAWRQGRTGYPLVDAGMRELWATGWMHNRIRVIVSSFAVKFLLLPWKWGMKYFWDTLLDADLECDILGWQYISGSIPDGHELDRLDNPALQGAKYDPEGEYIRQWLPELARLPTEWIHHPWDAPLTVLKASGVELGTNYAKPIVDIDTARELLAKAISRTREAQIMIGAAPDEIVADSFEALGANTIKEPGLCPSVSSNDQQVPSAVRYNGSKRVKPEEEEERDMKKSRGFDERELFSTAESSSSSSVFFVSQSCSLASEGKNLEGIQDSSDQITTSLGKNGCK

Experiments:
SPA1 = target: T1, SPA1 (UniProt Q9SYX2); assay: yeast β-gal assay, dark or blue light (FIG. 5H)
T1 sequence (looked up): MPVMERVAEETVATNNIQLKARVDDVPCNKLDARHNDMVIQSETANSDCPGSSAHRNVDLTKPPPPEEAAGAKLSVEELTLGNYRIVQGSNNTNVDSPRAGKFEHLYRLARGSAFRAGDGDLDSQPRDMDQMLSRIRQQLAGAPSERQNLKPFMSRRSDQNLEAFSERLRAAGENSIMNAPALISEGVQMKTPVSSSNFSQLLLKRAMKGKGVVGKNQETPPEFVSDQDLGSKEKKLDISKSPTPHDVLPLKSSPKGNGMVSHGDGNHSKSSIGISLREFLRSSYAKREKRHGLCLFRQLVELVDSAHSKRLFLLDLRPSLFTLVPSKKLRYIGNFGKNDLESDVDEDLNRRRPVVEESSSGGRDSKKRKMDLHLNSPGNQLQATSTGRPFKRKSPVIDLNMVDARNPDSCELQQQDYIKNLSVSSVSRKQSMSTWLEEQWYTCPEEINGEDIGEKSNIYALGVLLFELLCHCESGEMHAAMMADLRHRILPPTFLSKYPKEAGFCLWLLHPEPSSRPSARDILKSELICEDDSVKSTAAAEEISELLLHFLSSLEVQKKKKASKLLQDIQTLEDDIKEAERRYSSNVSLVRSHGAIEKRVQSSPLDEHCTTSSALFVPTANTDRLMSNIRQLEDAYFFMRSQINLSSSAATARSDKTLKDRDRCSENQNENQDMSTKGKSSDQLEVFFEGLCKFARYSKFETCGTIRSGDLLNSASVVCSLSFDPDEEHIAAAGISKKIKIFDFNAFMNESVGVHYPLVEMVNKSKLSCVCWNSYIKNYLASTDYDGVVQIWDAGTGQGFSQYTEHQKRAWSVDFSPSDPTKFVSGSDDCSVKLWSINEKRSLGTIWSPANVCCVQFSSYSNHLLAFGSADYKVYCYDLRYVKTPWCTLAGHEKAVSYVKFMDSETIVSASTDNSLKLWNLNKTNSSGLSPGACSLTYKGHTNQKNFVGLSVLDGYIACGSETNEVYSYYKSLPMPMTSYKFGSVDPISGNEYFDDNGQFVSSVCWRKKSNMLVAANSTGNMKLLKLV

[1] = target: Drosophila dCRY (Drosophila) (UniProt O77059); assay: co-IP (Flag-CRY with Myc-CRY) and qCo-IP (FLUC-CRY with REN-CRY) in HEK293T cells, blue light against dark (FIG. 10)

| Substance | binding (SPA1) | binding [1] |
| --- | --- | --- |
| Arabidopsis cryptochrome 2 (CRY2) (from UniProt Q96524 1-612) (receptor) | binds |  |
| Drosophila dCRY (from UniProt O77059 1-542) (receptor) |  | binds |
